Experimental findings from PMC5607218 are described below.

For this assay, the target named is periplasmic extracellular loop (ECL) of FtsX (C. crescentus). The experiment in a line: two-hybrid; bacterial two-hybrid: T18 and T25 plasmids co-transformed into E. coli BTH101; cultures spotted on plates with ampicillin, kanamycin, X-gal and 0.5 mM IPTG, 1-2 days at 30°C; blue colonies are positive; every interaction tested in triplicate.

No constants are given. Whether binding was seen depends on the method and setting. Binding can be weak; no strength is given.

On to “coiled coil (CC) domain of LdpF (LytM domain protein F, CCNA_03547) (from UniProt A0A0H3CDN2) (domain or fragment)”, for which the binding result was “binds”.
